Test results reported in patent publication US20180080942A1.
Results are given in words; binding and its absence hold for the method and conditions named. Some results given as binding are weak or reduced against the parent protein; the word gives no strength.

Columns and labels:
[1] = target: C-terminal cytoplasmic domain of natural killer cell immunoglobulin-like receptor KIR-3DL1, residues 340-423 (C-3DL1); test: 13C-detected CON NMR, free against complex
[2] = target: C-terminal cytoplasmic domain of natural killer cell immunoglobulin-like receptor KIR-3DL1, residues 340-423 (C-3DL1); test: 13C-detected CON NMR, SHP-2 2SH2 at a molar fraction of 20%, 37 C

B1: two SH2 domains of Src-homology 2 domain-containing phosphatase 2 (SHP-2 2SH2) (enzyme, UniProt Q06124 1-247, looked up)
chain: MTSRRWFHPNITGVEAENLLLTRGVDGSFLARPSKSNPGDFTLSVRRNGAVTHIKIQNTGDYYDLYGGEKFATLAELVQYYMEHHGQLKEKNGDVIELKYPLNCADPTSERWFHGHLSGKEAEKLLTEKGKHGSFLVRESQSHPGDFVLSVRTGDDKGESNDGKSKVTHVMIRCQELKYDVGGGERFDSLTDLVEHYKKNPMVETLGTVLQLKQPLNTTRINAAEIESRVRELSKLAETTDKVKQGF
With B1 the binding [1] was “binds” and the binding [2] was “binds”.
